Strings that start with PEPTIDE1 are HELM notation: dots part the residues, brackets hold end groups and non-standard residues.
Test: general procedure: Boc solid-phase peptide synthesis; MBHA resin (Bachem), 0.54 mmol/g; DIC/HOBt
Conditions: whole synthesis, capillary zone electrophoresis (CZE), scale of the general procedure about 0.50 gram of resin

PEPTIDE1{[ac].[D-2Nal].[D-4Cpa].[D-3Pal].S.[4Aph(Hor)].[D-4Aph(Cbm)].L.[ILys].P.[dA].[am]}$$$$V2.0
final purity (method not given): about 98%

Ac-β-D-2Nal-D-4Cpa-D-3Pal-Ser-4Aph(hydroorotyl)-D-4Amf(carbamoyl)-Leu-Lys(isopropyl)-Pro-D-Ala-NH2
final purity (method not given): greater than 99%

Reference: US5925730A (Ferring BV, priority 1997, dated 1999)
